Measurements as given in paper PMC5386674.
Results are given in words; binding and its absence hold for the method and conditions named. For some of these results: Binding seen in cells or lysates may run through a third protein. Some results given as binding are weak or reduced against the parent protein; the word gives no strength. For some of these results: Tags and fused reporters may be left off the sequences shown. Each block holds one binder with its values, some of them ahead of it.

Chains of the proteins cited; added tags and fusions are not shown. Residues count along the entry.
UniProt P97471, residues 1-391: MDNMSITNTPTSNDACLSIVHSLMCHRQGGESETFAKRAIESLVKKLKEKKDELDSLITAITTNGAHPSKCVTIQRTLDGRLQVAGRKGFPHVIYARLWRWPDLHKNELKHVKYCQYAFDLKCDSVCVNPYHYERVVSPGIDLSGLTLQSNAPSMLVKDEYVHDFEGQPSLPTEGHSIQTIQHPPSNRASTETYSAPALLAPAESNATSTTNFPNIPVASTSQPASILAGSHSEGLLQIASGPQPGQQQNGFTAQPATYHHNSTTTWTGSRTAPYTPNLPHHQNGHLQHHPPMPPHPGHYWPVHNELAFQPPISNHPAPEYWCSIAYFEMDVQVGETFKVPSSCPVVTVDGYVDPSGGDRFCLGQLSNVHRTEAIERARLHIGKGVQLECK

What was measured:
[1] = target: murine Smad4 (truncated, 43 kDa), membrane-anchored target (pMyr) (murine) (UniProt P97471); test: two-hybrid; Ras rescue-based cytoplasmic yeast two-hybrid (CytoTrap, Stratagene); Sos-tagged bait in the cytoplasm, myristoylated target on the membrane; growth of cdc25H yeast at 37°C on selective galactose plates
[2] = target: T1, WWOX (WW domain-containing oxidoreductase), endogenous human (human (endogenous in THP-1, U937, SK-N-SH, Jurkat, MCF7)) (UniProt Q9NZC7); test: co-IP; data not shown; THP-1, U937 and TNF-sensitive L929 cells, as for Figure 4F (WWOX antibody, HA 30 min)
T1 sequence: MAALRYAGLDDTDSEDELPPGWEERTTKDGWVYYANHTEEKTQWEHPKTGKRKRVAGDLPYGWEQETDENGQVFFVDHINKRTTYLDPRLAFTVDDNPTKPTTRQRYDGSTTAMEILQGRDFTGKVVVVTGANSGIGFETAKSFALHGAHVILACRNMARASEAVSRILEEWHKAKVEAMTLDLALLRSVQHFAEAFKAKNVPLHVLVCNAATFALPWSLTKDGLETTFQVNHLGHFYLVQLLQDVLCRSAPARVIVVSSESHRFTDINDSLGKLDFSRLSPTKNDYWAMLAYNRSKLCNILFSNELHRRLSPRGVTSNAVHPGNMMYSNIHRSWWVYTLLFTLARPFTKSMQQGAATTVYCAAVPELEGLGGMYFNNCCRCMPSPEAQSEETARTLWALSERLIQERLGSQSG

[3] = target: T1, WWOX (WW domain-containing oxidoreductase), endogenous human (human (endogenous in THP-1, U937, SK-N-SH, Jurkat, MCF7)); test: co-IP; immunoprecipitation with WWOX antibody from cytosolic and nuclear fractions of THP-1, U937, Jurkat T and L929R cells, resting or treated with HA (25 μg/ml) for 30 min
[4] = target: T2, WWOX, endogenous murine (murine (endogenous in L929R, L929)) (UniProt Q91WL8); test: co-IP; data not shown; THP-1, U937 and TNF-sensitive L929 cells, as for Figure 4F (WWOX antibody, HA 30 min)
T2 sequence: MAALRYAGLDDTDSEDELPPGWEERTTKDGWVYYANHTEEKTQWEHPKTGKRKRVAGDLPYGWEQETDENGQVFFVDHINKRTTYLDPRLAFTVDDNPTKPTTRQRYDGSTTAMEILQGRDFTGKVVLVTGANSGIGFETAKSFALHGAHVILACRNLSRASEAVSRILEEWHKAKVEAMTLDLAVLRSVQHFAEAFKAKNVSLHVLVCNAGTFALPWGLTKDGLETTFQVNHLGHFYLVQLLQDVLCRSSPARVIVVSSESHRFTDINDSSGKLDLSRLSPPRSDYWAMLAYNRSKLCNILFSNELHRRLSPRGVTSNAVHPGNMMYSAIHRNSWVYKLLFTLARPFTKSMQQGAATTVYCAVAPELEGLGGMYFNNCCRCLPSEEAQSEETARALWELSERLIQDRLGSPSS

[5] = target: T2, WWOX, endogenous murine (murine (endogenous in L929R, L929)); test: co-IP; immunoprecipitation with WWOX antibody from cytosolic and nuclear fractions of THP-1, U937, Jurkat T and L929R cells, resting or treated with HA (25 μg/ml) for 30 min
[6] = target: DsRed-monomer-p53 (not stated (human p53 cloned for the two-hybrid)) (UniProt P04637); test: FRET or BRET; time-lapse tri-molecular FRET microscopy in DU145 cells transiently expressing ECFP-, EGFP- and DsRed-monomer-tagged proteins, stimulated with HA (25 μg/ml); FRETc
[7] = target: T3, murine Hyal-2, membrane-anchored target (pMyr) (murine) (UniProt O35632); test: two-hybrid; competitive binding in the Ras rescue yeast two-hybrid: membrane-anchored Hyal-2 (target), constant amount of WWOX (bait), various amounts of Smad4 (competitor) in the cytoplasm; % colony growth at 37°C over 22°C
T3 sequence: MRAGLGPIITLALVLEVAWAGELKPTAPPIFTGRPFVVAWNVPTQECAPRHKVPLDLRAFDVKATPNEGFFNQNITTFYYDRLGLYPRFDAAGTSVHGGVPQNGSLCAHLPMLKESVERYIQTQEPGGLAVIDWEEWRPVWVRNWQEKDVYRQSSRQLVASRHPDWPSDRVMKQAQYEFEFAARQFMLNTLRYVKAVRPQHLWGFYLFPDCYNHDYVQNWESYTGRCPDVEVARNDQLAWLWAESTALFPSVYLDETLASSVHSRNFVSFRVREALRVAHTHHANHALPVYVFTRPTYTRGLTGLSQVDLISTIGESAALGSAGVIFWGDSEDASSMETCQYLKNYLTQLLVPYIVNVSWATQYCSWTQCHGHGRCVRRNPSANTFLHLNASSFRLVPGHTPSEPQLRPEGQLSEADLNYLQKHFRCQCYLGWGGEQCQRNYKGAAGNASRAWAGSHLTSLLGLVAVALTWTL

[8] = target: human p53, membrane-anchored target (pMyr) (human) (UniProt P04637); test: two-hybrid; Ras rescue-based cytoplasmic yeast two-hybrid (CytoTrap, Stratagene); Sos-tagged bait in the cytoplasm, myristoylated target on the membrane; growth of cdc25H yeast at 37°C on selective galactose plates

B1: WWOXsdr(mito) (the mitochondria-targeting region in the SDR domain of murine WWOX), Sos-tagged bait (domain or fragment, UniProt Q91WL8 209-273)
chain: CNAGTFALPWGLTKDGLETTFQVNHLGHFYLVQLLQDVLCRSSPARVIVVSSESHRFTDINDSSG
- binding [1]: no binding

B3: Hyal-2 (hyaluronidase 2), endogenous human (protein, UniProt Q12891 21-448)
chain: MELKPTAPPIFTGRPFVVAWDVPTQDCGPRLKVPLDLNAFDVQASPNEGFVNQNITIFYRDRLGLYPRFDSAGRSVHGGVPQNVSLWAHRKMLQKRVEHYIRTQESAGLAVIDWEDWRPVWVRNWQDKDVYRRLSRQLVASRHPDWPPDRIVKQAQYEFEFAAQQFMLETLRYVKAVRPRHLWGFYLFPDCYNHDYVQNWESYTGRCPDVEVARNDQLAWLWAESTALFPSVYLDETLASSRHGRNFVSFRVQEALRVARTHHANHALPVYVFTRPTYSRRLTGLSEMDLISTIGESAALGAAGVILWGDAGYTTSTETCQYLKDYLTRLLVPYVVNVSWATQYCSRAQCHGHGRCVRRNPSASTFLHLSTNSFRLVPGHAPGEPQLRPVGELSWADIDHLQTHFRCQCYLGWSGEQCQWDHRQAAGG
- binding [2]: binds
- binding [3]: binds

B4: Hyal-2, endogenous murine (protein, UniProt O35632 21-448)
chain: GELKPTAPPIFTGRPFVVAWNVPTQECAPRHKVPLDLRAFDVKATPNEGFFNQNITTFYYDRLGLYPRFDAAGTSVHGGVPQNGSLCAHLPMLKESVERYIQTQEPGGLAVIDWEEWRPVWVRNWQEKDVYRQSSRQLVASRHPDWPSDRVMKQAQYEFEFAARQFMLNTLRYVKAVRPQHLWGFYLFPDCYNHDYVQNWESYTGRCPDVEVARNDQLAWLWAESTALFPSVYLDETLASSVHSRNFVSFRVREALRVAHTHHANHALPVYVFTRPTYTRGLTGLSQVDLISTIGESAALGSAGVIFWGDSEDASSMETCQYLKNYLTQLLVPYIVNVSWATQYCSWTQCHGHGRCVRRNPSANTFLHLNASSFRLVPGHTPSEPQLRPEGQLSEADLNYLQKHFRCQCYLGWGGEQCQRNYKGAAGN
- binding [4]: binds
- binding [5]: binds

B5: WWOX(K28T/D29V), dominant negative murine WWOX, Sos-tagged bait (protein, UniProt Q91WL8 1-414)
chain: MAALRYAGLDDTDSEDELPPGWEERTTTVGWVYYANHTEEKTQWEHPKTGKRKRVAGDLPYGWEQETDENGQVFFVDHINKRTTYLDPRLAFTVDDNPTKPTTRQRYDGSTTAMEILQGRDFTGKVVLVTGANSGIGFETAKSFALHGAHVILACRNLSRASEAVSRILEEWHKAKVEAMTLDLAVLRSVQHFAEAFKAKNVSLHVLVCNAGTFALPWGLTKDGLETTFQVNHLGHFYLVQLLQDVLCRSSPARVIVVSSESHRFTDINDSSGKLDLSRLSPPRSDYWAMLAYNRSKLCNILFSNELHRRLSPRGVTSNAVHPGNMMYSAIHRNSWVYKLLFTLARPFTKSMQQGAATTVYCAVAPELEGLGGMYFNNCCRCLPSEEAQSEETARALWELSERLIQDRLGSPSS
- binding [1]: binds

B6: EGFP-WWOX (murine) (protein, UniProt Q91WL8 1-414)
chain: MAALRYAGLDDTDSEDELPPGWEERTTKDGWVYYANHTEEKTQWEHPKTGKRKRVAGDLPYGWEQETDENGQVFFVDHINKRTTYLDPRLAFTVDDNPTKPTTRQRYDGSTTAMEILQGRDFTGKVVLVTGANSGIGFETAKSFALHGAHVILACRNLSRASEAVSRILEEWHKAKVEAMTLDLAVLRSVQHFAEAFKAKNVSLHVLVCNAGTFALPWGLTKDGLETTFQVNHLGHFYLVQLLQDVLCRSSPARVIVVSSESHRFTDINDSSGKLDLSRLSPPRSDYWAMLAYNRSKLCNILFSNELHRRLSPRGVTSNAVHPGNMMYSAIHRNSWVYKLLFTLARPFTKSMQQGAATTVYCAVAPELEGLGGMYFNNCCRCLPSEEAQSEETARALWELSERLIQDRLGSPSS
- binding [6]: binds

Other lines, results leading:

- binding [1]: no binding
B2: murine Hyal-2, membrane-anchored target (pMyr) (protein, UniProt O35632 1-473)
chain: MRAGLGPIITLALVLEVAWAGELKPTAPPIFTGRPFVVAWNVPTQECAPRHKVPLDLRAFDVKATPNEGFFNQNITTFYYDRLGLYPRFDAAGTSVHGGVPQNGSLCAHLPMLKESVERYIQTQEPGGLAVIDWEEWRPVWVRNWQEKDVYRQSSRQLVASRHPDWPSDRVMKQAQYEFEFAARQFMLNTLRYVKAVRPQHLWGFYLFPDCYNHDYVQNWESYTGRCPDVEVARNDQLAWLWAESTALFPSVYLDETLASSVHSRNFVSFRVREALRVAHTHHANHALPVYVFTRPTYTRGLTGLSQVDLISTIGESAALGSAGVIFWGDSEDASSMETCQYLKNYLTQLLVPYIVNVSWATQYCSWTQCHGHGRCVRRNPSANTFLHLNASSFRLVPGHTPSEPQLRPEGQLSEADLNYLQKHFRCQCYLGWGGEQCQRNYKGAAGNASRAWAGSHLTSLLGLVAVALTWTL

- binding [7]: binds
- binding [8]: binds
B7: murine WWOX, Sos-tagged bait (pSos) (protein, UniProt Q91WL8 1-414)
chain: MAALRYAGLDDTDSEDELPPGWEERTTKDGWVYYANHTEEKTQWEHPKTGKRKRVAGDLPYGWEQETDENGQVFFVDHINKRTTYLDPRLAFTVDDNPTKPTTRQRYDGSTTAMEILQGRDFTGKVVLVTGANSGIGFETAKSFALHGAHVILACRNLSRASEAVSRILEEWHKAKVEAMTLDLAVLRSVQHFAEAFKAKNVSLHVLVCNAGTFALPWGLTKDGLETTFQVNHLGHFYLVQLLQDVLCRSSPARVIVVSSESHRFTDINDSSGKLDLSRLSPPRSDYWAMLAYNRSKLCNILFSNELHRRLSPRGVTSNAVHPGNMMYSAIHRNSWVYKLLFTLARPFTKSMQQGAATTVYCAVAPELEGLGGMYFNNCCRCLPSEEAQSEETARALWELSERLIQDRLGSPSS
